In ChEMBL document CHEMBL2021799, “Exploring the interplay of physicochemical properties, membrane permeability and giardicidal activity of some benzimidazole derivatives” (Eur J Med Chem, 2012):
Converted amounts (≈) assume the structure as drawn.

What was measured:
[1] = Lipophilicity, logkw of the compound by RP-HPLC analysis
[2] = Aqueous solubility of the compound; conditions: buffer
[3] = Distribution coefficient, log D of the compound; conditions: octanol/water

Q: With `CSc1nc2ccc(Cl)cc2n1C` as the compound, how does the logKw [1] read?
A: 2.49

Q: And the solubility [2]?
A: 0.0142 µg/mL (≈ 0.0668 µM)

Q: And the logD [3]?
A: 4.15

Q: Which solubility [2] does the source give for `Cc1nc2ccc(Cl)cc2n1C` here?
A: 126 µg/mL (≈ 696 µM)

Q: What about the logD [3] of the same compound?
A: 2.49
